From publication PMC10206070 come the findings set out here.

The labels stand for the following.
B1: Kynureninase (KYNU) (enzyme, UniProt Q16719 1-465)
chain: MEPSSLELPADTVQRIAAELKCHPTDERVALHLDEEDKLRHFRECFYIPKIQDLPPVDLSLVNKDENAIYFLGNSLGLQPKMVKTYLEEELDKWAKIAAYGHEVGKRPWITGDESIVGLMKDIVGANEKEIALMNALTVNLHLLMLSFFKPTPKRYKILLEAKAFPSDHYAIESQLQLHGLNIEESMRMIKPREGEETLRIEDILEVIEKEGDSIAVILFSGVHFYTGQHFNIPAITKAGQAKGCYVGFDLAHAVGNVELYLHDWGVDFACWCSYKYLNAGAGGIAGAFIHEKHAHTIKPALVGWFGHELSTRFKMDNKLQLIPGVCGFRISNPPILLVCSLHASLEIFKQATMKALRKKSVLLTGYLEYLIKHNYGKDKAATKKPVVNIITPSHVEERGCQLTITFSVPNKDVFQELEKRGVVCDKRNPNGIRVAPVPLYNSFHDVYKFTNLLTSILDSAETKN

No constants are given. Whether binding was seen depends on the method and setting. Binding seen in cells or lysates may run through a third protein. A yes stands for co-enrichment or nearness to the bait. Other partners may have been found.

The target of the assay is T1, Adenosine Deaminase Acting on RNA 1 (ADAR1) (human (endogenous in MDA-MB-231)) (UniProt P55265).
T1 sequence: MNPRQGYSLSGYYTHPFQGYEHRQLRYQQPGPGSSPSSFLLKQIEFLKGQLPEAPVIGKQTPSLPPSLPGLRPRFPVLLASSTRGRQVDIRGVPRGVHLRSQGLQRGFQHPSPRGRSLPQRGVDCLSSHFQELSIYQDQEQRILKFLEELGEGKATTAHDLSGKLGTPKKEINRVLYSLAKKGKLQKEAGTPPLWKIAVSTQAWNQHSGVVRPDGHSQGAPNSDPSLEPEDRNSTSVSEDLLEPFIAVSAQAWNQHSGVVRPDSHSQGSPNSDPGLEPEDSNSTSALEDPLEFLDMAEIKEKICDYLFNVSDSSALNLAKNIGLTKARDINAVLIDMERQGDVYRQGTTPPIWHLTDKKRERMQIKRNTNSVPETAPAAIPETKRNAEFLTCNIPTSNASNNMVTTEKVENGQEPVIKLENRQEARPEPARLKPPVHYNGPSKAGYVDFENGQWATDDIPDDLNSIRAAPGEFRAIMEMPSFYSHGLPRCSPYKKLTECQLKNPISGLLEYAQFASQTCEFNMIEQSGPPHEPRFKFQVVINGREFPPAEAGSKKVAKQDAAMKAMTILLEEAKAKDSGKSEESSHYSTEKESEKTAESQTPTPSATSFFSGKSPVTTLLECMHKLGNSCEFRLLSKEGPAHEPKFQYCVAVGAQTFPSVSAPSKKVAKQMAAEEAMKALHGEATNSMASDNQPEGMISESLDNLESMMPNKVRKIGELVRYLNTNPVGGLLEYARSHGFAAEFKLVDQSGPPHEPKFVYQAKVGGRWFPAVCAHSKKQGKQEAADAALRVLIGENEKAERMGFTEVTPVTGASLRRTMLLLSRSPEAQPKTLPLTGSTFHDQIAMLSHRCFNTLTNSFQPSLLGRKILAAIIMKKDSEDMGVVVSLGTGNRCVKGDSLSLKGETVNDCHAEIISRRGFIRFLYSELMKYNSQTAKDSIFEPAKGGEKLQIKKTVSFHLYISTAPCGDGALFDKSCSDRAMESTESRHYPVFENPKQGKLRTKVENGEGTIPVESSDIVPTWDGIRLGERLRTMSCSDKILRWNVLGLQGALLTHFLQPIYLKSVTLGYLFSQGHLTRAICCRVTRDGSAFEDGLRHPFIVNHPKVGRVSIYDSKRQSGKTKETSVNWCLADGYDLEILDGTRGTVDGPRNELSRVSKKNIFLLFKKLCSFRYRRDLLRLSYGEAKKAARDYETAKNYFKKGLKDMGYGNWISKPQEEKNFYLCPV
As to the kind of experiment: affinity purification with mass spectrometry; endogenous ADAR1 immunoprecipitated from MDA-MB-231 lysate with a rabbit polyclonal anti-ADAR1 antibody on protein A/G beads, normal rabbit IgG as control; two biological and 3 technical replicates; hits kept with p < 0.05 and fold change > 2 over IgG.
For Nebulin (from UniProt P20929 1-8525), the binding entry was “binds”.

For the molecule “Complement C4-A (human (endogenous in MDA-MB-231))”, the binding entry was “binds”.

For the molecule B1, the binding entry is reported as “binds”.
